The supplement of paper PMC4604168 (melanoma cell lines)
The list shows a part of the results. Repeats are few or missing, and single values can be far off.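 Cells were imaged in 1,536-well plates, and nuclei stained with an antibody against cleaved PARP were counted against all DNA-stained nuclei to give the apoptosis fraction. Screening doses were chosen to leave most cells alive, and resting and induced cleaved-PARP levels differ strongly between cell lines.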

Tested on: WM3619
Assay: cleaved PARP positive nuclei fraction relative to DMSO control; melanoma cells; higher = more apoptosis
Conditions: library dose: low library concentration; 72 h

| SMILES | cleaved PARP positive nuclei fraction |
| --- | --- |
| O=C(Nc1cc(C(F)(F)F)cc(C(F)(F)F)c1)c1cc(Cl)ccc1O + COc1ccc(C2=N[C@@H](c3ccc(Cl)cc3)[C@@H](c3ccc(Cl)cc3)N2C(=O)N2CCNC(=O)C2)c(OC(C)C)c1 [Nutlin-3] (first compound 0.016 µM, partner dose 0.1 µM) | 84.5% |
| O=C(/C=C/c1cccnc1)NCCCCC1CCN(C(=O)c2ccccc2)CC1 + COc1ccc(Cl)c(Nc2nc3ccccc3nc2NS(=O)(=O)c2cccc(NC(=O)C(C)(C)N)c2)c1 [XL147] (first compound 0.01 µM, partner dose 0.8 µM) | 116% |
| N#CC[C@H](C1CCCC1)n1cc(-c2ncnc3[nH]ccc23)cn1 [ruxolitinib] + CO[C@@H]1[C@H](N(C)C(=O)c2ccccc2)C[C@H]2O[C@]1(C)n1c3ccccc3c3c4c(c5c6ccccc6n2c5c31)C(=O)NC4 [Midostaurin] (first compound 1 µM, partner dose 0.08 µM) | 104% |
| Cc1cc(Nc2cc(N3CCN(C)CC3)nc(Sc3ccc(NC(=O)C4CC4)cc3)n2)n[nH]1 [Tozasertib] + NC1(c2ccc(-c3nc4ccn5c(=O)[nH]nc5c4cc3-c3ccccc3)cc2)CCC1 [MK2206] (first compound 0.006 µM, partner dose 0.4 µM) | 99.7% |
| Cc1ccc(Nc2nccc(N(C)c3ccc4c(C)n(C)nc4c3)n2)cc1S(N)(=O)=O [Pazopanib] + Cc1cc([N+](=O)[O-])ccc1NS(=O)(=O)c1cc(Cl)ccc1Cl [FH535] (first compound 0.4 µM, partner dose 1 µM) | 93% |
| O=C(Nc1cc(C(F)(F)F)cc(C(F)(F)F)c1)c1cc(Cl)ccc1O + CC(C)CCN1c2nc(Nc3cc(F)c(O)c(F)c3)ncc2N(C)C(=O)C1C [BID1870] (first compound 0.016 µM, partner dose 0.2 µM) | 72.1% |
| N#CC[C@H](C1CCCC1)n1cc(-c2ncnc3[nH]ccc23)cn1 [ruxolitinib] + CCCS(=O)(=O)Nc1ccc(F)c(C(=O)c2c[nH]c3ncc(Cl)cc23)c1F [PLX4720] (first compound 1 µM, partner dose 0.08 µM) | 97% |
| Cc1cn(-c2cc(NC(=O)c3ccc(C)c(Nc4nccc(-c5cccnc5)n4)c3)cc(C(F)(F)F)c2)cn1 [nilotinib] + Nc1ncn([C@H]2C[C@H](O)[C@@H](CO)O2)c(=O)n1 [decitabine] (first compound 0.2 µM, partner dose 0.1 µM) | 97% |
| O=c1[nH]nc(Sc2ncc([N+](=O)[O-])s2)n1-c1ccc2c(c1)OCCO2 + OCCn1cc(-c2cnc3nnn(Cc4ccc5ncccc5c4)c3n2)cn1 [PF04217903] (first compound 0.2 µM, partner dose 1 µM) | 103% |
| Cc1ccc(Nc2nccc(N(C)c3ccc4c(C)n(C)nc4c3)n2)cc1S(N)(=O)=O [Pazopanib] + N#Cc1c(O)c2c(-c3ccc(-c4ccccc4O)cc3)csc2[nH]c1=O [A769662] (first compound 0.4 µM, partner dose 2 µM) | 87.3% |
| Cc1ccc(Nc2nccc(N(C)c3ccc4c(C)n(C)nc4c3)n2)cc1S(N)(=O)=O [Pazopanib] + CCc1ccc(CCOc2ccc(CC3SC(=O)NC3=O)cc2)nc1 [pioglitazone] (first compound 0.4 µM, partner dose 2 µM) | 106% |

Tested on: WM451Lu
Assay: as above
Conditions: library dose: low library concentration; 72 h

| SMILES | cleaved PARP positive nuclei fraction |
| --- | --- |
| CC[C@]1(O)C[C@H]2CN(CCc3c([nH]c4ccccc34)[C@@](C(=O)OC)(c3cc4c(cc3OC)N(C=O)[C@H]3[C@@](O)(C(=O)OC)[C@H](OC(C)=O)[C@]5(CC)C=CCN6CC[C@]43[C@@H]65)C2)C1 [vincristine] + O=C(Nc1ccccc1)c1cc([N+](=O)[O-])ccc1Cl [GW9662] (first compound 0.0001 µM, partner dose 2 µM) | 210% |
| O=C(Nc1cc(C(F)(F)F)cc(C(F)(F)F)c1)c1cc(Cl)ccc1O + Cn1cnc2c(F)c(Nc3ccc(Br)cc3Cl)c(C(=O)NOCCO)cc21 [selumetinib] (first compound 0.016 µM, partner dose 0.015 µM) | 270% |
| O=C(/C=C/c1cccnc1)NCCCCC1CCN(C(=O)c2ccccc2)CC1 + COc1cc2c(Oc3ccc4[nH]c(C)cc4c3F)ncnc2cc1OCCCN1CCCC1 [cediranib] (first compound 0.01 µM, partner dose 0.4 µM) | 211% |
| CCCCCCCCCCCCCCCCCCOP(=O)([O-])OC1CC[N+](C)(C)CC1 [Perifosine] + CNC(=O)c1cc(Oc2ccc(NC(=O)Nc3ccc(Cl)c(C(F)(F)F)c3)cc2)ccn1 [sorafenib] (first compound 0.4 µM, partner dose 0.4 µM) | 41.1% |
| CCCCCCCCCCCCCCCCCCOP(=O)([O-])OC1CC[N+](C)(C)CC1 [Perifosine] + OCCn1cc(-c2cnc3nnn(Cc4ccc5ncccc5c4)c3n2)cn1 [PF04217903] (first compound 0.4 µM, partner dose 1 µM) | 155% |
| CC[C@]1(O)C[C@H]2CN(CCc3c([nH]c4ccccc34)[C@@](C(=O)OC)(c3cc4c(cc3OC)N(C=O)[C@H]3[C@@](O)(C(=O)OC)[C@H](OC(C)=O)[C@]5(CC)C=CCN6CC[C@]43[C@@H]65)C2)C1 [vincristine] + c1cc(-c2cnn3cc(-c4ccc(OCCN5CCCCC5)cc4)cnc23)ccn1 [Dorsomorphin] (first compound 0.0001 µM, partner dose 0.4 µM) | 300% |
| O=C(Nc1cc(C(F)(F)F)cc(C(F)(F)F)c1)c1cc(Cl)ccc1O + CS(=O)(=O)c1ccc(C(=O)Nc2ccc(Cl)c(-c3ccccn3)c2)c(Cl)c1 [vismodegib] (first compound 0.016 µM, partner dose 1 µM) | 104% |
| N#CC[C@H](C1CCCC1)n1cc(-c2ncnc3[nH]ccc23)cn1 [ruxolitinib] + CN1CCN(c2ccc3nc(-c4c(N)c5c(F)cccc5[nH]c4=O)[nH]c3c2)CC1 [Dovitinib] (first compound 1 µM, partner dose 0.1 µM) | 87.8% |
| CCCCCCCCCCCCCCCCCCOP(=O)([O-])OC1CC[N+](C)(C)CC1 [Perifosine] + Nc1ncn([C@H]2C[C@H](O)[C@@H](CO)O2)c(=O)n1 [decitabine] (first compound 0.4 µM, partner dose 0.1 µM) | 142% |
| O=c1[nH]nc(Sc2ncc([N+](=O)[O-])s2)n1-c1ccc2c(c1)OCCO2 + O=S(=O)(c1ccccc1)N(CC(F)(F)F)c1ccc(C(O)(C(F)(F)F)C(F)(F)F)cc1 [T0901317] (first compound 0.2 µM, partner dose 1.4 µM) | 60.5% |
| Cc1cc(Nc2cc(N3CCN(C)CC3)nc(Sc3ccc(NC(=O)C4CC4)cc3)n2)n[nH]1 [Tozasertib] + N#Cc1c(O)c2c(-c3ccc(-c4ccccc4O)cc3)csc2[nH]c1=O [A769662] (first compound 0.006 µM, partner dose 2 µM) | 174% |
| Cc1cn(-c2cc(NC(=O)c3ccc(C)c(Nc4nccc(-c5cccnc5)n4)c3)cc(C(F)(F)F)c2)cn1 [nilotinib] + CCCCCCCCCCCC1=C(O)C(=O)C=C(O)C1=O [Embelin] (first compound 0.2 µM, partner dose 1.2 µM) | 296% |
| O=C(Nc1cc(C(F)(F)F)cc(C(F)(F)F)c1)c1cc(Cl)ccc1O + NC(=O)c1ccc(N(C(N)=O)c2c(F)cccc2F)nc1-c1ccc(F)cc1F [VX702] (first compound 0.016 µM, partner dose 0.4 µM) | 236% |
| CC[C@]1(O)C[C@H]2CN(CCc3c([nH]c4ccccc34)[C@@](C(=O)OC)(c3cc4c(cc3OC)N(C=O)[C@H]3[C@@](O)(C(=O)OC)[C@H](OC(C)=O)[C@]5(CC)C=CCN6CC[C@]43[C@@H]65)C2)C1 [vincristine] + COc1cc2ncnc(Nc3ccc(Oc4ccccc4)cc3)c2cc1OC [SrcI1] (first compound 0.0001 µM, partner dose 2 µM) | 532% |
| Cc1cn(-c2cc(NC(=O)c3ccc(C)c(Nc4nccc(-c5cccnc5)n4)c3)cc(C(F)(F)F)c2)cn1 [nilotinib] + CN1CCN(c2ccc3nc(-c4c(N)c5c(F)cccc5[nH]c4=O)[nH]c3c2)CC1 [Dovitinib] (first compound 0.2 µM, partner dose 0.1 µM) | 37.3% |
| Cc1cc(Nc2cc(N3CCN(C)CC3)nc(Sc3ccc(NC(=O)C4CC4)cc3)n2)n[nH]1 [Tozasertib] + O=c1[nH]nc(Sc2ncc([N+](=O)[O-])s2)n1-c1ccc2c(c1)OCCO2 [BI78D3] (first compound 0.006 µM, partner dose 0.2 µM) | 42.8% |
| COc1cc([C@@H]2c3cc4c(cc3[C@@H](O[C@@H]3O[C@@H]5CO[C@@H](C)O[C@H]5[C@H](O)[C@H]3O)[C@H]3COC(=O)[C@H]23)OCO4)cc(OC)c1O [etoposide] + C=C(c1ccc(C(=O)O)cc1)c1cc2c(cc1C)C(C)(C)CCC2(C)C [Bexarotene] (first compound 0.02 µM, partner dose 2 µM) | 92.8% |
| N#CC[C@H](C1CCCC1)n1cc(-c2ncnc3[nH]ccc23)cn1 [ruxolitinib] + Clc1ccc(Nc2nnc(Cc3ccncc3)c3ccccc23)cc1 [vatalanib] (first compound 1 µM, partner dose 2 µM) | 51.9% |

Exported bar-delimited: part of the list above
SMILES | cleaved PARP positive nuclei fraction
N#CC[C@H](C1CCCC1)n1cc(-c2ncnc3[nH]ccc23)cn1 [ruxolitinib] + CN1CCN(c2ccc3nc(-c4c(N)c5c(F)cccc5[nH]c4=O)[nH]c3c2)CC1 [Dovitinib] (first compound 1 µM, partner dose 0.1 µM) | 87.8%
CCCCCCCCCCCCCCCCCCOP(=O)([O-])OC1CC[N+](C)(C)CC1 [Perifosine] + Nc1ncn([C@H]2C[C@H](O)[C@@H](CO)O2)c(=O)n1 [decitabine] (first compound 0.4 µM, partner dose 0.1 µM) | 142%
